Test results as given in patent publication US5972379A, “Liposome composition and method for administering a quinolone” (Sequus Pharmaceuticals, Inc., priority 1998, dated 1999).

Columns and labels:
[1] = 24 hours, 37° C., rat plasma, diluted 1/50
[2] = Remote drug loading into PEG-coated liposomes; type: physicochemical; settings: lipid/drug ratio 8, as stated in leakage test
Procedure: Liposome having a surface-coating of polyethylene glycol were prepared by dissolving 661.1 mg hydrogenated soy phosphatidylcholine (HSPC), 220.5 mg cholesterol and 220.5 mg of polyethylene glycol derivatized to disteroyl phosphatidylethanolamine (PEG-DSPE) in 10 ml chloroform in a 250 mL round bottom flask. The chloroform was removed using a flash evaporator under reduced pressure until dryness. To the thin lipid film on the surface of the flask was added 15 ml of a solution of 250 mM ammonium sulfate, pH 5.5 and the lipids were dispersed in the solution by vigorous shaking for approximately 30 minutes at 60° C. The multilamellar vesicles obtained were extruded 6 times through a 0.4 μm pore-size Nucleopore polycarbonate filter, 6 times through a 0.1 μm polycarbonate filter and 3 times through a 0.05 μm polycarbonate filter using a stainless steel extrusion cell under a pressure of 200-400 psig. The extrusion process was carried out at 60° C. […] The liposomes were then dialyzed overnight against 4 liters 10% sucrose to remove external ammonium sulfate at 4° C.
The mixtures were incubated at 60° C. for 30 minutes. After incubation, the mixtures were immediately cooled in an ice bath. Aliquot samples were taken and the percent of drug loading was determined by using a Sephadex G-50 column (1.0×19 cm). […]

Compound: O=C(O)c1cn(C2CC2)c2cc(N3CCNCC3)c(F)cc2c1=O [ciprofloxacin, 1-cyclopropyl-6-fluoro-1,4-dihydro-4-oxo-7-(1-piperazinyl)-3-quinoline carboxylic acid]
- drug leaked from the liposomes in plasma [1]: 85%
- ciprofloxacin concentration in liposome [2]: approximately 75 mg/ml
